Data on 22 compounds can be found in PubChem BioAssay AID248 (DTP/NCI, 2004).

This experiment has as its system L1210 leukemia ip in BDF1 mice, survival T/C. Nature of the experiment: NCI In Vivo Anticancer Drug Screen. Data for tumor model L1210 Leukemia (intraperitoneal) in B6D2F1 (BDF1) mice. The note with it: T/C endpoint: mean survival time, higher T/C = longer survival.
The mark [1] stands for this setting: dose: 300.0 mg/kg/injection, schedule: Q01DX001 (ip), vehicle: saline.
Setting [2] is: dose: 150.0 mg/kg/injection, schedule: Q01DX001 (ip), vehicle: acetone.
Where [3] appears, read: dose: 300.0 mg/kg/injection, schedule: Q01DX001 (ip), vehicle: acetone.
Where [4] appears, read: dose: 100.0 mg/kg/injection, schedule: Q04DX003 (ip), vehicle: saline.
Where [5] appears, read: dose: 200.0 mg/kg/injection, schedule: Q04DX003 (ip), vehicle: saline.
[6] abbreviates: dose: 50.0 mg/kg/injection, schedule: Q01DX009 (ip), vehicle: Klucel (hydroxypropylcellulose) (HPC).
The mark [7] stands for this setting: dose: 100.0 mg/kg/injection, schedule: Q01DX009 (ip), vehicle: Klucel (hydroxypropylcellulose) (HPC).
The mark [8] stands for this setting: dose: 200.0 mg/kg/injection, schedule: Q01DX009 (ip), vehicle: Klucel (hydroxypropylcellulose) (HPC).
Setting [9] is: dose: 200.0 mg/kg/injection, schedule: Q01DX009 (ip), vehicle: saline with Tween-80.
[10] abbreviates: dose: 400.0 mg/kg/injection, schedule: Q01DX009 (ip), vehicle: saline.
The mark [11] stands for this setting: dose: 400.0 mg/kg/injection, schedule: Q04DX002 (ip), vehicle: saline with Tween-80.
Where [12] appears, read: dose: 25.0 mg/kg/injection, schedule: Q01DX009 (ip), vehicle: saline with Tween-80.

Molecules are shown by their SMILES. The list is a part of this screen's results and no random one: it is rich in T/C values a quarter to a half above the control, in often repeated tests (any T/C) and in doses without a T/C. Other doses and runs of a compound stand elsewhere. T/C: endpoint of the treated group in % of that of the vehicle group. Some entries give survivors of the animals treated and no T/C: the source files T/C as zero there, which appears to mark a toxic dose or a test without result, not a measured value. Some survivor counts are full or nearly so, which does not show that the dose was tolerated: the source hardly ever lists a survival T/C far under the control, and the zero likely stands for such cases as well. Survivors were counted at the toxicity check, usually on the fifth day, unless a day is given; later deaths do not show. Schedules are NCI's codes, read here as Q, the interval in days (D) or hours (H), X, the number of doses. Some doses were run more than once; the results are listed from low to high. For survival time, the PubChem record calls one and a half times the control and up active, and a quarter to a half above the control has no call in these data; cut-offs in other NCI protocols can differ. Some schedule codes hold Z or #, which are not explained here. Some T/C values are followed by the survivors on the day toxicity was checked, most often the fifth; without a count, all were alive then.

Regarding `c1ccc(C2C(CN3CCCCCC3)C2c2ccccc2)cc1` (stereo unspecified), the survivor count (dose: 100.0 mg/kg/injection, schedule: Q04DX002 (ip), vehicle: Klucel (hydroxypropylcellulose) (HPC)) is 1 of 3 and 2 of 3; the survivor count (dose: 200.0 mg/kg/injection, schedule: Q04DX002 (ip), vehicle: Klucel (hydroxypropylcellulose) (HPC)) is 0 of 3; the survivor count (dose: 400.0 mg/kg/injection, schedule: Q04DX002 (ip), vehicle: Klucel (hydroxypropylcellulose) (HPC)) is 0 of 3.

For `COc1ccccc1N(C(C)=O)C1=C(Cl)C(=O)c2ccccc2C1=O`, the survivor count was 2 of 6 (dose: 40.0 mg/kg/injection, schedule: Q01DX001 (ip), vehicle: saline); 0 of 6 (dose: 75.0 mg/kg/injection, schedule: Q01DX001 (ip), vehicle: saline); 0 of 6 (dose: 150.0 mg/kg/injection, schedule: Q01DX001 (ip), vehicle: saline); 0 of 6 under setting [1].

For the compound `ClC1=C(Cl)C2(Cl)CC(Cl)C1C2(Cl)Cl` (stereo unspecified), the survivor count is listed as 5 of 6 (dose: 40.0 mg/kg/injection, schedule: Q01DX001 (ip), vehicle: acetone); 2 of 6 (dose: 75.0 mg/kg/injection, schedule: Q01DX001 (ip), vehicle: acetone); 2 of 6 under setting [2]; 1 of 6 under setting [3].

With `CCCCCCCCCCCCCCCC[N+](C)(C)CCCCCCCCCCCCCCCC`, the survivor count reads like this: (dose: 25.0 mg/kg/injection, schedule: Q04DX003 (ip), vehicle: saline with Tween-80) 1 of 3; (dose: 50.0 mg/kg/injection, schedule: Q04DX003 (ip), vehicle: saline with Tween-80) 0 of 3; (dose: 50.0 mg/kg/injection, schedule: Q04DX003 (ip), vehicle: saline) 3 of 3; under setting [4], 1 of 3; under setting [5], 0 of 3.

Take `O=c1oc2ccc([N+](=O)[O-])cc2o1`: the survivor count is recorded as 2 of 6 under setting [2] and 0 of 6 under setting [3].

Turning to `CN(C)N=Nc1ccccc1Cl`, the T/C was 125 % of control under setting [6] and 139 % of control under setting [7]. Moreover, the survivor count is, setting by setting: under setting [8], 0 of 6 and 5 of 6; under setting [9], 6 of 6; (dose: 400.0 mg/kg/injection, schedule: Q01DX009 (ip), vehicle: Klucel (hydroxypropylcellulose) (HPC)) 3 of 6.

`[Cl][Sn]([CH]1CCCCC1)([CH]1CCCCC1)[CH]1CCCCC1`: the survivor count is 2 of 3 (dose: 50.0 mg/kg/injection, schedule: Q04DX002 (ip), vehicle: gum acacia); 0 of 3 (dose: 100.0 mg/kg/injection, schedule: Q04DX002 (ip), vehicle: gum acacia); 0 of 3 (dose: 200.0 mg/kg/injection, schedule: Q04DX002 (ip), vehicle: gum acacia); 0 of 3 (dose: 400.0 mg/kg/injection, schedule: Q04DX002 (ip), vehicle: gum acacia).

For the compound `CCCOC(=O)C1(N)CCCC1`, the T/C runs as follows: (dose: 66.0 mg/kg/injection, schedule: Q01DX Z (ip), vehicle: saline) 133 % of control; (dose: 125.0 mg/kg/injection, schedule: Q01DX Z (ip), vehicle: carboxymethylcellulose (CMC)) 134 % of control; (dose: 200.0 mg/kg/injection, schedule: Q04DX003 (ip), vehicle: Klucel (hydroxypropylcellulose) (HPC)) 140 % of control; (dose: 400.0 mg/kg/injection, schedule: Q01DX001 (ip), vehicle: Klucel (hydroxypropylcellulose) (HPC)) 139 and 140 % of control; (dose: 600.0 mg/kg/injection, schedule: Q01DX001 (ip), vehicle: Klucel (hydroxypropylcellulose) (HPC)) 145 % of control [5 of 6 alive]; (dose: 800.0 mg/kg/injection, schedule: Q01DX001 (ip), vehicle: Klucel (hydroxypropylcellulose) (HPC)) 142 % of control. Moreover, the survivor count (dose: 1200.0 mg/kg/injection, schedule: Q01DX001 (ip), vehicle: Klucel (hydroxypropylcellulose) (HPC)) is 0 of 6.

Take `Nc1nc2c(ncn2C2OC(COP(=O)(O)O)C(O)C2O)c(=O)[nH]1` (stereo unspecified): the survivor count under setting [10] is given as 6 of 6.

With `CC1(C)OC(O)C(C(O)C(O)C(O)C(=O)O)O1` (stereo unspecified), the survivor count (dose: 400.0 mg/kg/injection, schedule: Q04DX002 (ip), vehicle: saline) is on record as 0 of 3.

Consider `CCC(=O)c1ccc2c(c1)N(C(C)CN(C)C)c1ccccc1S2` (stereo unspecified), for which the survivor count was 2 of 6 (dose: 25.0 mg/kg/injection, schedule: Q03HX024 (ip), vehicle: saline); 3 of 6 and 6 of 6 (dose: 100.0 mg/kg/injection, schedule: Q01DX009 (ip), vehicle: saline); 3 of 6 under setting [4]; 0 of 6 (dose: 200.0 mg/kg/injection, schedule: Q01DX009 (ip), vehicle: saline); 0 of 4 under setting [5]; 0 of 6 under setting [1]. Also, the survivor count runs as follows: under setting [10], 0 of 6; (dose: 400.0 mg/kg/injection, schedule: Q04DX003 (ip), vehicle: saline) 0 of 4. Moreover, the T/C is, setting by setting: (dose: 50.0 mg/kg/injection, schedule: Q01DX009 (ip), vehicle: saline) 129 % of control [5 of 6 alive]; under setting [4], 130 % of control.

Take `CN(C)N=Nc1c(O)ccc2c1CCC1C2CCC2(C)C(=O)CCC12` (stereo unspecified): the survivor count under setting [6] is 6 of 6, the survivor count under setting [7] was 6 of 6 and the survivor count under setting [8] is 5 of 6.

On to `O=Nc1c(O)ccc2ncccc12`, for which, under “dose: 300.0 mg/kg/injection, schedule: Q01DX001 (ip), vehicle: other”, the survivor count is 2 of 6.

Regarding `COc1cc(/C=N\N=C(/C)c2ccc(C)cc2C)cc(OC)c1OC`, the survivor count under setting [11] is 3 of 3.

As to `CSc1ccccc1C[P+](c1ccccc1)(c1ccccc1)c1ccccc1`, the survivor count is on record as 6 of 6 under setting [12]; 0 of 6 (dose: 50.0 mg/kg/injection, schedule: Q01DX009 (ip), vehicle: saline with Tween-80); 0 of 6 (dose: 100.0 mg/kg/injection, schedule: Q01DX009 (ip), vehicle: saline with Tween-80).

`CCCCc1cn(C(=O)CCCl)nn1`: the survivor count under setting [11] is reported as 0 of 3.

`NC(=S)c1nn(C2OC(CO)C(O)C2O)c2ncnc(N)c12` (stereo unspecified): the T/C reads like this: (dose: 1.56 mg/kg/injection, schedule: Q01DX009 (ip), vehicle: saline) 138 and 143 % of control; (dose: 3.12 mg/kg/injection, schedule: Q01DX009 (ip), vehicle: saline) 129 % of control. Moreover, the survivor count runs as follows: (dose: 12.5 mg/kg/injection, schedule: Q01DX005 (ip), vehicle: saline) 2 of 6; (dose: 25.0 mg/kg/injection, schedule: Q01DX005 (ip), vehicle: saline) 0 of 6.

For the compound `COC(=O)C(CCSC)NC(=O)c1ccccc1` (stereo unspecified), the survivor count (dose: 400.0 mg/kg/injection, schedule: Q01DX009 (ip), vehicle: saline with Tween-80) is listed as 6 of 6.

For the compound `CCN(C(=O)Nc1ccccc1F)c1cc(OC)ccc1C`, the survivor count under setting [9] is reported as 3 of 3.

In the case of `CC(O)C[P+](c1ccccc1)(c1ccccc1)c1ccccc1` (stereo unspecified), the survivor count (dose: 400.0 mg/kg/injection, schedule: Q01DX001 (ip), vehicle: saline) was 0 of 4.

On to `O=C(O)c1cc([N+](=O)[O-])ccc1O`, for which the survivor count by setting is: (dose: 50.0 mg/kg/injection, schedule: Q01DX001 (ip), vehicle: carboxymethylcellulose (CMC)) 4 of 4; (dose: 400.0 mg/kg/injection, schedule: Q01DX001 (ip), vehicle: carboxymethylcellulose (CMC)) 2 of 4.

`CC1=Nc2c([nH]cnc2=S)NN1`: the survivor count under setting [12] is 0 of 6 and the survivor count (dose: 50.0 mg/kg/injection, schedule: Q01DX001 (ip), vehicle: saline with Tween-80) is 1 of 6.
